From publication PMC12195231, “Afil, a Lectin from Aplysina fistularis, Exhibits Antibiofilm and Synergistic Antibacterial Activity Against Resistant Bacteria” (Microorganisms, 2025)

Test system: T1, AfiL
T1 construct: native, purified from sponge tissue (ammonium sulfate, Sepharose 4B, lactose elution); 70 kDa disulfide-linked dimer, ~30 kDa subunits; internal stretch […]
Experiment: hemagglutination inhibition, rabbit erythrocytes
Assay type: cell-based, Aplysina fistularis
Settings: TBS
From the text: hemagglutination inhibition, rabbit erythrocytes on AfiL

| Structure (SMILES) | Minimum Inhibitory Concentration (MIC) | Minimum Inhibitory Concentration (MIC) (anomer of this row not stated (methods list α-D-lactose and β-D-lactose)) |
| --- | --- | --- |
| O=[N+]([O-])c1ccc(O[C@H]2O[C@H](CO)[C@H](O)[C@H](O)[C@H]2O)cc1 [4-nitrophenyl-α-D-galactoside] | 12.5 mM | – |
| O=[N+]([O-])c1ccc(O[C@@H]2O[C@H](CO)[C@H](O)[C@H](O)[C@H]2O)cc1 [4-nitrophenyl-β-D-galactoside] | 12.5 mM | – |
| OC[C@H]1O[C@@H](O[C@H]2[C@H](O)[C@@H](O)C(O)O[C@@H]2CO)[C@H](O)[C@@H](O)[C@H]1O (stereo partly drawn) [D-lactose] | – | 12.5 mM |
| OC[C@H]1O[C@@H](O[C@@H]2[C@@H](CO)OC(O)(CO)[C@H]2O)[C@H](O)[C@@H](O)[C@H]1O (stereo partly drawn) [D-lactulose] | 25 mM | – |
| OC[C@H]1O[C@@H](O[C@H]2[C@H](O)[C@@H](O)[C@@H](O)O[C@@H]2CO)[C@H](O)[C@@H](O)[C@H]1O [α-D-lactose] | 12.5 mM | – |
